According to PMC10461100, “Transcuticular calcium imaging as a tool for the functional study of insect odorant receptors” (Frontiers in Molecular Neuroscience, 2023):

Tested on: T1, SlitOR29
T1 construct: full-length UAS transgene in Drosophila melanogaster ab3A basiconic neurons in place of DmelOR22a/b; endogenous Drosophila Orco; GCaMP6s reporter co-expressed; with Odorant receptor coreceptor (endogenous, Drosophila melanogaster)
Test: transcuticular calcium imaging (GCaMP6s), single dose
Design: species or system Spodoptera littoralis
Conditions: volatile stimulus, 100 μg on filter paper (in mineral oil), in vivo fly antenna, 1 s puff

SMILES | response amplitude (ΔF/F0) at 100 μg on filter paper [%] | response amplitude (ΔF/F0) at 100 μg on filter paper (receptor-free control line also gives a small significant signal) [%]
C=CC(=C)CCC=C(C)C [β-myrcene] | 38.46 ± 6.16 | –
CC(=O)CCC=C(C)C [sulcatone] | – | 21.55 ± 3.28
CC(C)=CCC/C(C)=C/CO [geraniol] | 28.70 ± 4.55 | –
